Data reported in patent US8895504B2, “Amylin derivatives” (priority 2008, dated 2014).
Not every detail of the peptide structures is certain; ends, links or a residue may be inferred. Some entries repeat one wording, which the source may state once for all of them. For some of these results: For at least one compound, name, drawing or mass did not settle the structure. *1 amine or outer side, *2 acyl side, *3 side chain or, on linkers, in order; H or OH if unused. Where a SMILES comes first, the peptide text is derived from it. Bridges are numbered along the chain shown (N, C = ends). The star is where a group is joined. C20 diacid = O=C(O)CCCCCCCCCCCCCCCCCCC(=O)*; γGlu = O=C(O)[C@H](CCC(=O)[*:2])N[*:1]; AEEA = NCCOCCOCC(=O)O

Chains of the proteins cited; added tags and fusions are not shown. Residues count along the entry.
UniProt O60896, 24-148: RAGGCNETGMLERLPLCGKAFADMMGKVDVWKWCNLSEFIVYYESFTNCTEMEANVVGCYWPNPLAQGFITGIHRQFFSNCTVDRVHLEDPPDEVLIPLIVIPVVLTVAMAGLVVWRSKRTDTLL
UniProt P30988, 25-474: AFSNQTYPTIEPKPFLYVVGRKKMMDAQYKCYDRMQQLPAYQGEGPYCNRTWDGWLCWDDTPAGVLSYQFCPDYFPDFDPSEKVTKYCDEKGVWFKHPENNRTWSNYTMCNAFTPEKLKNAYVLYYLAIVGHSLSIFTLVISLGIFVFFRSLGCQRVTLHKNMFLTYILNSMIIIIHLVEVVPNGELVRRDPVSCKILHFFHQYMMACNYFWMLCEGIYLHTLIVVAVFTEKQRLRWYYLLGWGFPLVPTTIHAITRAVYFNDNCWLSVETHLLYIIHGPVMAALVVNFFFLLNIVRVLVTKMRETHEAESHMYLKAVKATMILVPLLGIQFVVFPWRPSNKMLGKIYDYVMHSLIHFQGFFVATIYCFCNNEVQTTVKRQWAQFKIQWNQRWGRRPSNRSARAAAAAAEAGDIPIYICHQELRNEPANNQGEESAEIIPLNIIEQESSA

Experiments:
[1] = molecular target: T1, Amylin 3(a) receptor (human calcitonin receptor (CTa) and RAMP-3) (Homo sapiens, UniProt O60896+P30988); test: Luciferase assay (III), BHK Amylin 3(a)//CRE-luc cells; format: cell-based; conditions: BHK cells with Amylin 3(a) receptor and CRE luciferase reporter, 4 hours incubation; read-out: Potency Luciferase
T1 construct: expressed in transfected cells; host or cells: BHK570 cells, stably transfected with a CRE-luciferase reporter
Excerpt: It has previously been published (Poyner D R et al 2002, Pharmacological Reviews 54(2) 233-246) that activation of Amylin receptors (coexpression of Calcitonin receptor and receptor activity modifying peptides RAMPs) by Amylin leads to an increase in the intracellular concentration of cAMP. Consequently, transcription is activated at promoters containing multiple copies of the cAMP response element (CRE). It is thus possible to measure Amylin activity by use of a CRE luciferase reporter gene introduced into BHK cells also expressing an Amylin receptor.
2. Construction of an Amylin 3(a)/CRE-luc Cell Line
A BHK570 cell line stably transfected with the human calcitonin receptor (CTa) and a CRE-responsive luciferase reportergene. The cell line was further transfected with RAMP-3, using standard methods. This turns the Calcitonin receptor into an Amylin 3(a) receptor. Methotrexate, Neomycin, and Hygromycin are selection markers for luciferase, the Calcitonin receptor, and RAMP-3, respectively.
3. Amylin Luciferase Assay
To perform activity assays, BHK Amylin 3(a)//CRE-luc cells were seeded in white 96 well culture plates at a density of about 20,000 cells/well. […] Finally, luminescence was measured on a TopCounter (Packard) in SPC (single photon counting) mode.

[2] = system: food intake; test: Pharmacological Assay (I) - efficacy testing on appetite, ad libitum fed rat model; format: in vivo, Sprague Dawley (SD) rats; conditions: 30 nmol/kg vs vehicle, ad libitum fed rats, n=5-7, 0-48 hours
Outline: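 SD rats, 200-250 g, individually housed on reversed light/dark cycle, ad libitum food and water; single 0.01-3 mg/kg dose ip, po or sc just before lights off, 5-8 rats per dose plus vehicle group. Food intake recorded hourly for 7 h, then at 24 h and sometimes 48 h; Grubbs outliers excluded.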

With CC[C@H](C)[C@H](NC(=O)[C@@H]1CCCN1C(=O)CNC(=O)[C@H](Cc1ccccc1)NC(=O)[C@H](CC(N)=O)NC(=O)[C@H](CC(N)=O)NC(=O)[C@H](CO)NC(=O)[C@H](CO)NC(=O)[C@H](Cc1c[nH]cn1)NC(=O)[C@H](Cc1c[nH]cn1)NC(=O)[C@H](CC(C)C)NC(=O)[C@H](Cc1ccccc1)NC(=O)[C@H](CC(N)=O)NC(=O)[C@H](C)NC(=O)[C@H](CC(C)C)NC(=O)[C@H](CCCNC(=N)N)NC(=O)[C@H](CCC(N)=O)NC(=O)[C@@H](NC(=O)[C@H](C)NC(=O)[C@@H]1CSSC[C@H](NC(=O)COCCOCCNC(=O)COCCOCCNC(=O)CC[C@H](NC(=O)CCCCCCCCCCCCCCCCCCC(=O)O)C(=O)O)C(=O)N[C@@H](CC(N)=O)C(=O)N[C@@H]([C@@H](C)O)C(=O)N[C@@H](C)C(=O)N[C@@H]([C@@H](C)O)C(=O)N1)[C@@H](C)O)C(=O)N[C@@H](CC(C)C)C(=O)N1CCC[C@H]1C(=O)N1CCC[C@H]1C(=O)N[C@H](C(=O)N[C@@H](CC(N)=O)C(=O)N[C@H](C(=O)NCC(=O)N[C@@H](CO)C(=O)N[C@@H](CC(N)=O)C(=O)N[C@H](C(=O)N[C@@H](Cc1ccc(O)cc1)C(N)=O)[C@@H](C)O)C(C)C)[C@@H](C)O [Example 64, N-alpha-[2-(2-{2-[2-(2-{2-[(S)-4-Carboxy-4-(19-carboxyheptadecanoylamino)butyrylamino]ethoxy}ethoxy)acetylamino]ethoxy}ethoxy)acetyl]-[His17]-pramlintide (2-37)] ({C20 diacid-γGlu-AEEA-AEEA}-CNTATCATQRLANFLHHSSNNFGPILPPTNVGSNTY-NH2; disulfide 1-6; N-terminus and C-terminus assumed) the EC50 [1] was 0.07 nM and the “food intake over a period of 48 hours” value [2] was “effectively reducing food intake”.

CC[C@H](C)[C@H](NC(=O)[C@@H]1CCCN1C(=O)CNC(=O)[C@H](Cc1ccccc1)NC(=O)[C@H](CC(N)=O)NC(=O)[C@H](CC(N)=O)NC(=O)[C@H](CO)NC(=O)[C@H](CO)NC(=O)[C@H](Cc1c[nH]cn1)NC(=O)[C@H](Cc1c[nH]cn1)NC(=O)[C@H](CC(C)C)NC(=O)[C@H](Cc1ccccc1)NC(=O)[C@H](CC(N)=O)NC(=O)[C@H](C)NC(=O)[C@H](CC(C)C)NC(=O)[C@H](CCCNC(=N)N)NC(=O)[C@H](CCC(N)=O)NC(=O)[C@@H](NC(=O)[C@H](C)NC(=O)[C@@H]1CSSC[C@H](NC(=O)[C@H](CCCCN)NC(=O)[C@H](CCCNC(=N)N)NC(=O)[C@H](Cc2c[nH]cn2)NC(=O)CC[C@H](NC(=O)CCCCCCCCCCCCCCCCCCC(=O)O)C(=O)O)C(=O)N[C@@H](CC(N)=O)C(=O)N[C@@H]([C@@H](C)O)C(=O)N[C@@H](C)C(=O)N[C@@H]([C@@H](C)O)C(=O)N1)[C@@H](C)O)C(=O)N[C@@H](CC(C)C)C(=O)N1CCC[C@H]1C(=O)N1CCC[C@H]1C(=O)N[C@H](C(=O)N[C@@H](CC(N)=O)C(=O)N[C@H](C(=O)NCC(=O)N[C@@H](CO)C(=O)N[C@@H](CC(N)=O)C(=O)N[C@H](C(=O)N[C@@H](Cc1ccc(O)cc1)C(N)=O)[C@@H](C)O)C(C)C)[C@@H](C)O [Example 40, N-alpha-[(S)-4-Carboxy-4-(19-carboxynonadecanoylamino)butyryl]-His-Arg-[His17]-pramlintide] ({C20 diacid-γGlu}-HRKCNTATCATQRLANFLHHSSNNFGPILPPTNVGSNTY-NH2; disulfide 4-9) was tested, and the “food intake over a period of 48 hours” value [2] was “effectively reducing food intake”.

With CC[C@H](C)[C@H](NC(=O)[C@@H]1CCCN1C(=O)CNC(=O)[C@H](Cc1ccccc1)NC(=O)[C@H](CC(N)=O)NC(=O)[C@H](CC(N)=O)NC(=O)[C@H](CO)NC(=O)[C@H](CO)NC(=O)[C@H](Cc1c[nH]cn1)NC(=O)[C@H](Cc1c[nH]cn1)NC(=O)[C@H](CC(C)C)NC(=O)[C@H](Cc1ccccc1)NC(=O)[C@H](CC(N)=O)NC(=O)[C@H](C)NC(=O)[C@H](CC(C)C)NC(=O)[C@H](CCCNC(=N)N)NC(=O)[C@H](CCC(N)=O)NC(=O)[C@@H](NC(=O)[C@H](C)NC(=O)[C@@H]1CSSC[C@H](NC(=O)[C@H](Cc2c[nH]cn2)NC(=O)[C@H](Cc2c[nH]cn2)NC(=O)[C@H](Cc2c[nH]cn2)NC(=O)[C@H](CCC(=O)O)NC(=O)CC[C@H](NC(=O)CCCCCCCCCCCCCCCCCCC(=O)O)C(=O)O)C(=O)N[C@@H](CC(N)=O)C(=O)N[C@@H]([C@@H](C)O)C(=O)N[C@@H](C)C(=O)N[C@@H]([C@@H](C)O)C(=O)N1)[C@@H](C)O)C(=O)N[C@@H](CC(C)C)C(=O)N1CCC[C@H]1C(=O)N1CCC[C@H]1C(=O)N[C@H](C(=O)N[C@@H](CC(N)=O)C(=O)N[C@H](C(=O)NCC(=O)N[C@@H](CO)C(=O)N[C@@H](CC(N)=O)C(=O)N[C@H](C(=O)N[C@@H](Cc1ccc(O)cc1)C(N)=O)[C@@H](C)O)C(C)C)[C@@H](C)O [Example 54, N-alpha-[(S)-4-Carboxy-4-(19-carboxynonadecanoylamino)butyryl]-Glu-His-His-[His1,His17]-pramlintide] ({C20 diacid-γGlu}-EHHHCNTATCATQRLANFLHHSSNNFGPILPPTNVGSNTY-NH2; disulfide 5-10) the “food intake over a period of 48 hours” value [2] was “effectively reducing food intake”.
